# Test results: the supplement of paper PMC10338343
# ± gives the standard deviation. The entries are a selection whose mix differs from that of the whole data set. The uncertainty is large for many entries.
# Tested on: EfPiwi piRISC loaded with piRNA #1 (26 nt)
# Assay: pre-steady-state target cleavage rate (min^-1); guide: piRNA #1 5'p-UGAGGUAGUAGGUUGUAUAGUAUCCA; MIWI and MILI are mouse PIWI proteins and EfPiwi is from a freshwater sponge; tags in brackets are library labels; higher = faster piRNA-guided slicing of the target
# Settings: auxiliary factor: 500 nM Ephydatia muelleri Gtsf1
# Procedure, shortened: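 In this Cleave-'n-Seq assay, uncleaved targets were sequenced and normalised to depth and to weakly complementary targets. They came from a transcribed, DNA-blocked target RNA library […] mixed with 1 nM active affinity-purified piRISC carrying one synthetic guide, with or without 500 nM GTSF1 partner protein, in HEPES–potassium acetate buffer at 33 °C for 0–8 or 0–960 min. After three trials were pooled and k3 was capped at 0.0001 min^-1, the pre-steady-state cleavage rate was obtained from a burst-and-steady-state fit.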
row,Sequence,pre-steady-state target cleavage rate
1,GGAGACCUAACUAUACAACCUACUAUCUCA,0.0057 ± 0.003
2,GGAGACCAUACUAUACAACCUAGAUGGAGA [g9:g23:cont:t1A],0.00356 ± 0.0037
3,GGAGACCUAUCUAUACAUCCUUCUACCUCA,0.00237 ± 0.0042
4,GGAGUGGAUAGUAUACAACCUACUACCACA,0.00327 ± 0.0018
5,GGAGUGGAUACUUUACUACCUACUACCUCA,0.00437 ± 0.0036
6,GGAGUGGAUACUAUACAAUCUACUACCUCA,0.105 ± 0.038
7,GGAGUGGAUACUAUACAACCUACUUCCUCA,0.00544 ± 0.0029
8,GGAGACCAUAUUAUACAACCUACUACCUCA,0.116 ± 0.036
9,GGAGACCUAAUUAUACAACCUACUACCUCA,0.0144 ± 0.0065
10,GGAGACGAUACUAAACAACCUACUACCUCA,0.0292 ± 0.012
11,GGAGUGGAUACUAUACAACCUACAUACCUCA,0.00344 ± 0.0016
12,GGAGACCUAACUAUACAACCUACCUACCUCA,0.00259 ± 0.0049
13,GGAGAGGAUGCUAUACAACCUACUACCUCA,0.00971 ± 0.006
14,GGAGACCUAUGUAUACAUGGAUGAUGGAGA [g14:g19:cont:t1A],0.000213 ± 0.017
15,GGAGACCUAACUAUACAAGCUACUUCCUCA,0.00164 ± 0.0025
16,GGAGACCUAUGAUAUGUUGCUAUCUACCUCA,0.000827 ± 0.01
17,GGAGACCAUACUAUACAUGGAUGAUGGAGA [g14:g23:cont:t1A],0.000301 ± 0.015
18,GGAGAGGAAACUAUACAACCUAGUACCUCA,0.00323 ± 0.0013
19,GGAGACCAUACUAUACAACGUACUACCUCA,0.00482 ± 0.0015
20,GGAGACCUAACUAUACAACCUACAUACCUCA,0.00151 ± 0.0062

# Shown bar-delimited: entries from further up.
row | Sequence | pre-steady-state target cleavage rate
4 | GGAGUGGAUAGUAUACAACCUACUACCACA | 0.00327 ± 0.0018
5 | GGAGUGGAUACUUUACUACCUACUACCUCA | 0.00437 ± 0.0036

# Following part

row,Sequence,pre-steady-state target cleavage rate
1,GGAGACCAUACUAUAUAACCUACUACCUCA,0.00757 ± 0.0042
2,GGAGACCAUACUAUACAACCUUCUACCUCA,0.00625 ± 0.0028
3,GGAGACGAAACUAUAGAACCUACUACCUCA,0.00291 ± 0.0044
4,GGAGACCAUACUAUACUACCUACUACCUGA,0.00271 ± 0.0014
5,GGAGACCUAUCUAUACAAGCUACUAGCUCA,0.00368 ± 0.0039
6,GGAGACCUAACUAUACAACCUACUAACCUCA,0.00295 ± 0.0038
7,GGAGACCUAUGAAUACAACCUACUACCCCA,0.00177 ± 0.0054
8,GGAGAGGAUACUAUACAACCUACUACCGCA,0.00593 ± 0.0021
9,GGAGACCUAACUAUACAACCUACUACCUGA,0.00393 ± 0.002
10,GGAGACCUUACUAUACAACAUACUACCUCA,0.00974 ± 0.0063
11,GGAGAGGAUACUAUUGAACCUACUACCUCA,0.00275 ± 0.0046
12,GGAGACCUAACUAAACAACCUACUAGCUCA,0.000237 ± 0.015
13,GGAGAGGAUACCUAUACAACCUACUACCUCA,0.0826 ± 0.033
14,GGAGUGGAUACUAUACUACCUUCUACCUCA,0.00331 ± 0.0022
15,GGAGACCAUACUAUAGAUCCUACUACCUCA,0.00287 ± 0.0038
16,GGAGACCUUACUAUACAACCUACUACCUCCA,0.00652 ± 0.0028
17,GGAGACCUUACUAUACAACCUACUACUUCA,0.0046 ± 0.003
18,GGAGACCUAUGAUAUGUAGCUACUACGUCA,0.000648 ± 0.0095
19,GGAGACGAUACUUUUCAACCUACUACCUCA,0.00363 ± 0.0038
20,GGAGAGCAUACUUUACAACCUACUACCUCA,0.0083 ± 0.0045
